Laboratory results: patent publication US20170189504A1, “NOVEL PEPTIDES AND COMBINATION OF PEPTIDES FOR USE IN IMMUNOTHERAPY AGAINST VARIOUS CANCERS” (immatics biotechnologies GmbH, priority 2015, published 2017)
For some of these results: For expression read-outs the peptide stands for its source gene, whose mRNA was measured; the gene is not named for every peptide.

Key:
source genes (mRNA) [1] = test: Gene and exon expression of source genes, TCGA tumor samples compared with normal tissue samples (Lonsdale, 2013) (Table 17); design: species or system human
HLA-A*02 = test: Identification and relative LC-MS quantitation of HLA-A*02-presented tumor-associated peptides on tissue samples (presentation profiles, Tables 13A, 13B, 15, FIG. 1); design: species or system human; key to Presentation score NHL / Presentation score CLL / Presentation score BRCA / Presentation score AML / Presentation score GB / Presentation score NSCLC / Presentation score GBC_CCC / Presentation score UEC / Presentation score MEL / Presentation score OSCAR / Presentation score GC / Presentation score UBC / Presentation score OC / Presentation score RCC / Presentation score CRC / Presentation score PCA / Presentation score HCC / Presentation score PC / Presentation score SCLC: specifically presented on tumors (++++); very highly over-presented on tumors compared to a panel of normal tissues (+++); highly over-presented on tumors compared to a panel of normal tissues (++); over-presented on tumors compared to a panel of normal tissues (+)
source genes (mRNA) [2] = test: Expression profiling of source genes by in-house RNASeq of tumor and normal tissues (Table 18, FIG. 2); design: species or system human; key: very highly over-expressed in tumors compared to a panel of normal tissues (+++); highly over-expressed in tumors compared to a panel of normal tissues (++); over-expressed in tumors compared to a panel of normal tissues (+); conditions: source gene of peptide

Substance: 120: peptide found in HCFC1 (gene looked up) (VTPVTVSAV; listed as Homo sapiens) [compound 120]
- Target coverage: over-expression category of source gene, LAML (source genes (mRNA) [1]; Acute Myeloid Leukemia (N = 173), cutoff more than 2-fold above highest 75% percentile of normal tissue samples): A (>=50% of tumors above the cutoff)
- Target coverage: over-expression category of source gene, BLCA (source genes (mRNA) [1]; Bladder urothelial carcinoma (N = 408), cutoff more than 2-fold above highest 75% percentile of normal tissue samples): C (>=5% of tumors above the cutoff, but <20%)
- Target coverage: over-expression category of source gene, BRCA (source genes (mRNA) [1]; Breast cancer (N = 1104), cutoff more than 2-fold above highest 75% percentile of high and medium risk normal tissue samples): C (>=5% of tumors above the cutoff, but <20%)
- Target coverage: over-expression category of source gene, READ (source genes (mRNA) [1]; Colon and rectal adenocarcinoma (N = 167), cutoff more than 2-fold above highest 75% percentile of normal tissue samples): B (>= 20% of tumors above the cutoff, but <50%)
- Target coverage: over-expression category of source gene, COAD (source genes (mRNA) [1]; Colon and rectal adenocarcinoma (N = 462), cutoff more than 2-fold above highest 75% percentile of normal tissue samples): B (>= 20% of tumors above the cutoff, but <50%)
- Target coverage: over-expression category of source gene, ESCA (source genes (mRNA) [1]; Esophageal cancer (N = 185), cutoff more than 2-fold above highest 75% percentile of normal tissue samples): A (>=50% of tumors above the cutoff)
- Target coverage: over-expression category of source gene, GBM (source genes (mRNA) [1]; Glioblastoma multiforme (N = 169), cutoff more than 2-fold above highest 75% percentile of normal tissue samples): C (>=5% of tumors above the cutoff, but <20%)
- Target coverage: over-expression category of source gene, KICH (source genes (mRNA) [1]; Kidney chromophobe (N = 66), cutoff more than 2-fold above highest 75% percentile of normal tissue samples): C (>=5% of tumors above the cutoff, but <20%)
- Target coverage: over-expression category of source gene, LGG (source genes (mRNA) [1]; Lower grade glioma (N = 534), cutoff more than 2-fold above highest 75% percentile of normal tissue samples): B (>= 20% of tumors above the cutoff, but <50%)
- Target coverage: over-expression category of source gene, LUAD (source genes (mRNA) [1]; Lung adenocarcinoma (N = 517), cutoff more than 2-fold above highest 75% percentile of normal tissue samples): C (>=5% of tumors above the cutoff, but <20%)
- Target coverage: over-expression category of source gene, LUSC (source genes (mRNA) [1]; Lung squamous cell carcinoma (N = 503), cutoff more than 2-fold above highest 75% percentile of normal tissue samples): B (>= 20% of tumors above the cutoff, but <50%)
- Target coverage: over-expression category of source gene, DLBC (source genes (mRNA) [1]; Lymphoid neoplasm diffuse large B-cell lymphoma (N = 48), cutoff more than 2-fold above highest 75% percentile of normal tissue samples): B (>= 20% of tumors above the cutoff, but <50%)
- Target coverage: over-expression category of source gene, OV (source genes (mRNA) [1]; Ovarian serous cystadenocarcinoma (N = 309), cutoff more than 2-fold above highest 75% percentile of normal tissue samples): A (>=50% of tumors above the cutoff)
- Target coverage: over-expression category of source gene, KIRP (source genes (mRNA) [1]; Papillary kidney carcinoma (N = 291), cutoff more than 2-fold above highest 75% percentile of normal tissue samples): C (>=5% of tumors above the cutoff, but <20%)
- Target coverage: over-expression category of source gene, PRAD (source genes (mRNA) [1]; Prostate adenocarcinoma (N = 498), cutoff more than 2-fold above highest 75% percentile of normal tissue samples): C (>=5% of tumors above the cutoff, but <20%)
- Target coverage: over-expression category of source gene, SKCM (source genes (mRNA) [1]; Skin cutaneous melanoma (N = 473), cutoff more than 2-fold above highest 75% percentile of normal tissue samples): B (>= 20% of tumors above the cutoff, but <50%)
- Target coverage: over-expression category of source gene, STAD (source genes (mRNA) [1]; Stomach adenocarcinoma (N = 415), cutoff more than 2-fold above highest 75% percentile of normal tissue samples): A (>=50% of tumors above the cutoff)
- Target coverage: over-expression category of source gene, UCEC (source genes (mRNA) [1]; Uterine corpus endometrial carcinoma (N = 546), cutoff more than 2-fold above highest 75% percentile of normal tissue samples): B (>= 20% of tumors above the cutoff, but <50%)
- Presentation score OSCAR (HLA-A*02; HLA-A*02 peptides, esophageal cancer, including cancer of the gastric-esophageal junction (N = 17) vs panel of normal tissues (N = 262)): ++++
- Presentation score GC (HLA-A*02; HLA-A*02 peptides, gastric cancer (N = 29) vs panel of normal tissues (N = 262)): ++++
- Peptide Presentation on cancer entities (HLA-A*02; Table 13A, HLA-A*02-binding tumor-associated peptides, cancer entities on which the peptide was found presented): GC, OSCAR
- Expression score AML (source genes (mRNA) [2]; acute myeloid leukemia (N = 11) vs panel of normal tissues): +
- Expression score OSCAR (source genes (mRNA) [2]; esophageal cancer incl. gastric-esophageal junction (N = 11) vs panel of normal tissues): +
- Expression score GB (source genes (mRNA) [2]; glioblastoma (N = 24) vs panel of normal tissues): +
- Expression score NHL (source genes (mRNA) [2]; non-Hodgkin lymphoma (N = 10) vs panel of normal tissues): +
- Expression score NSCLC (source genes (mRNA) [2]; non-small cell lung cancer (N = 11) vs panel of normal tissues): +
- Expression score OC (source genes (mRNA) [2]; ovarian cancer (N = 12) vs panel of normal tissues): +
- Expression score SCLC (source genes (mRNA) [2]; small cell lung cancer (N = 10) vs panel of normal tissues): +
